Assay results published in the supplement of paper PMC10849652.
The list shows a part of the results.

The chains behind the UniProt entries cited, without tags or fusion partners. Where a name states a change or a piece, a line headed by the entry shows the natural chain unless it says otherwise.
UniProt Q8TCT9: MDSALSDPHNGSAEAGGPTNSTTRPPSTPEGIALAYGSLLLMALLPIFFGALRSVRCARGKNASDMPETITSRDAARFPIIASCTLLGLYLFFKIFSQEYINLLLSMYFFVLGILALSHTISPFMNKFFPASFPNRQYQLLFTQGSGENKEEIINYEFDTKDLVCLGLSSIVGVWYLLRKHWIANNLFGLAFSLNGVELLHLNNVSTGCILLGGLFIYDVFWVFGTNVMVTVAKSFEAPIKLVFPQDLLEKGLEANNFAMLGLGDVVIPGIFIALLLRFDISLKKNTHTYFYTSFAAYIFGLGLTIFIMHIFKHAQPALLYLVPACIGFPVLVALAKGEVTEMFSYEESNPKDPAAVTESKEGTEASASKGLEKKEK
UniProt P49773: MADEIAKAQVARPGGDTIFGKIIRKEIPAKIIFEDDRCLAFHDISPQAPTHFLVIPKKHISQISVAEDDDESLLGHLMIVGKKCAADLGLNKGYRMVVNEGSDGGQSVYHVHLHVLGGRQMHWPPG
UniProt O75506: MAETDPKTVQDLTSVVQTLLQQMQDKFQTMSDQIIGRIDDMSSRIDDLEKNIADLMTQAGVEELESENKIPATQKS
UniProt Q9P0W2: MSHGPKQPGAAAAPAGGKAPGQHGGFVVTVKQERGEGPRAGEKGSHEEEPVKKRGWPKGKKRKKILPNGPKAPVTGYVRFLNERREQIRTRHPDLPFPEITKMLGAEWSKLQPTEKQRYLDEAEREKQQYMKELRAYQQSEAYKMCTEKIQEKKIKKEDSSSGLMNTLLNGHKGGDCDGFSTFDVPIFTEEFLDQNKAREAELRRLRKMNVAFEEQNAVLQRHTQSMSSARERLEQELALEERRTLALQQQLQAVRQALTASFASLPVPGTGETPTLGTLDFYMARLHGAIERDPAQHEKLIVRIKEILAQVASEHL
UniProt Q9NWY4: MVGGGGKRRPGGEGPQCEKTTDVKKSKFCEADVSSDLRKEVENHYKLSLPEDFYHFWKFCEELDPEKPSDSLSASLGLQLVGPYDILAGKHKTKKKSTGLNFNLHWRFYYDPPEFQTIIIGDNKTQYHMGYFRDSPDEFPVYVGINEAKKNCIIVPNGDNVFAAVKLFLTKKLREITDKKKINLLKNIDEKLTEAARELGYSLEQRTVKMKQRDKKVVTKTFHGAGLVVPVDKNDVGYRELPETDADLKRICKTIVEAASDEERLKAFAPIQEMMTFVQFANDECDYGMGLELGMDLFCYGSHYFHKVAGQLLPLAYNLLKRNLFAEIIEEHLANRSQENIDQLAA
UniProt P0DMV8, whole entry, looked up: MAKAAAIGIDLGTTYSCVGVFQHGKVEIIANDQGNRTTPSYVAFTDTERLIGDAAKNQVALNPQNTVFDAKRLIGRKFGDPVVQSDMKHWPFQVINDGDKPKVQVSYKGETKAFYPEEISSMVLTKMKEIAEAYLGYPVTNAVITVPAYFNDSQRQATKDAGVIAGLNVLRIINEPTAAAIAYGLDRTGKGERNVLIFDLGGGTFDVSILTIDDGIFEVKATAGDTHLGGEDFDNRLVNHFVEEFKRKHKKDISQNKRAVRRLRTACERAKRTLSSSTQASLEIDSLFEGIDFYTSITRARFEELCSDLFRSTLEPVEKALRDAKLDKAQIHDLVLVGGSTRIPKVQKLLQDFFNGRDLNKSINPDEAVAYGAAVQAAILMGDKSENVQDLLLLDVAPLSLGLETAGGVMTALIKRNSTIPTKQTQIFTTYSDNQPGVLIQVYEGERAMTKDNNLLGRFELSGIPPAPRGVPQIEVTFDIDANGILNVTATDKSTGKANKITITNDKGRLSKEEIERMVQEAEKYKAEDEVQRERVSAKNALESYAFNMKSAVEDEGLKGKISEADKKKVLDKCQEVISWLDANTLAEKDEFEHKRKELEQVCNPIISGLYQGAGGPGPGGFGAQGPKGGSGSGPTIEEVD
UniProt Q9UPZ3: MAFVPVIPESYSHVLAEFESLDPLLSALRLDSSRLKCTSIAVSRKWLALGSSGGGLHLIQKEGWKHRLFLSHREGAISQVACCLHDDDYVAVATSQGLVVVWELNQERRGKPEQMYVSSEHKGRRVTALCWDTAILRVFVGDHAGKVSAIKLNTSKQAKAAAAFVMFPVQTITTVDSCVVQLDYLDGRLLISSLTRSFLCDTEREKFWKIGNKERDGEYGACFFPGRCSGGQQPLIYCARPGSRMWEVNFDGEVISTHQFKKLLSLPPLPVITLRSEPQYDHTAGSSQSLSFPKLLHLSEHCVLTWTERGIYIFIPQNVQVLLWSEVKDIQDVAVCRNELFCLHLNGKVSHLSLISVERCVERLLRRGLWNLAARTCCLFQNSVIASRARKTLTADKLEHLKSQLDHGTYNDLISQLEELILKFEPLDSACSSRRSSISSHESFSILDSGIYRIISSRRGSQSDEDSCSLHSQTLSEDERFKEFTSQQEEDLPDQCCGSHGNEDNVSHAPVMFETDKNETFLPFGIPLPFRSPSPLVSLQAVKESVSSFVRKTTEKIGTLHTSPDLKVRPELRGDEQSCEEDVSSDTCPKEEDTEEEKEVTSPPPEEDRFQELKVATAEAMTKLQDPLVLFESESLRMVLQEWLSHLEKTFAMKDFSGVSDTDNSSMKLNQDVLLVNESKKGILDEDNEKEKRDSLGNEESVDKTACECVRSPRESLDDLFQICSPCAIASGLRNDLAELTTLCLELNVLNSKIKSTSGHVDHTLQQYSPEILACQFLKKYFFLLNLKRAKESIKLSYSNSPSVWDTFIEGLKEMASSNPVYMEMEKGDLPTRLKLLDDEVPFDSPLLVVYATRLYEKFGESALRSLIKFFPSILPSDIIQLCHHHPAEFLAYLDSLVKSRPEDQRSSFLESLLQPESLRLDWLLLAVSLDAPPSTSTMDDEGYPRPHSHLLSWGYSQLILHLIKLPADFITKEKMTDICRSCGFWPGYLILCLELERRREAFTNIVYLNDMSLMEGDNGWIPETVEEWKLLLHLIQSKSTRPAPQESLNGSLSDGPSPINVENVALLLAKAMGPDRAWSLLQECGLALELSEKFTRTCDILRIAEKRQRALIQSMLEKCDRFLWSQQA
UniProt Q9NRV9: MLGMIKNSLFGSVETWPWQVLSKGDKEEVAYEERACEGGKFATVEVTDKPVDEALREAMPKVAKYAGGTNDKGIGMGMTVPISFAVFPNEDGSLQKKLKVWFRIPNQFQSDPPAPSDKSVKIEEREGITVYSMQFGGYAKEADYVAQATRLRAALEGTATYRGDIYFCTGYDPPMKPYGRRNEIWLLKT
UniProt O14979: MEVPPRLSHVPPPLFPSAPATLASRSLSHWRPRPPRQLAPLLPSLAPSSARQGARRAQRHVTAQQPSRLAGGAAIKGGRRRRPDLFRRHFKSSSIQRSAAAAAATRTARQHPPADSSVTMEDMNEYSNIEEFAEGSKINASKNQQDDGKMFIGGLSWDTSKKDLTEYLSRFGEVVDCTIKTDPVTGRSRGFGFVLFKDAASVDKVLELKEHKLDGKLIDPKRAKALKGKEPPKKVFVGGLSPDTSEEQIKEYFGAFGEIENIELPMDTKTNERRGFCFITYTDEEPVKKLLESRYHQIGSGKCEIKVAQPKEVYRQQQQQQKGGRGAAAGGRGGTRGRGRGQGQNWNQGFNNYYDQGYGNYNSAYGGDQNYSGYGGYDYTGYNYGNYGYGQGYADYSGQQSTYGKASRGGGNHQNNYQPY
UniProt P35914: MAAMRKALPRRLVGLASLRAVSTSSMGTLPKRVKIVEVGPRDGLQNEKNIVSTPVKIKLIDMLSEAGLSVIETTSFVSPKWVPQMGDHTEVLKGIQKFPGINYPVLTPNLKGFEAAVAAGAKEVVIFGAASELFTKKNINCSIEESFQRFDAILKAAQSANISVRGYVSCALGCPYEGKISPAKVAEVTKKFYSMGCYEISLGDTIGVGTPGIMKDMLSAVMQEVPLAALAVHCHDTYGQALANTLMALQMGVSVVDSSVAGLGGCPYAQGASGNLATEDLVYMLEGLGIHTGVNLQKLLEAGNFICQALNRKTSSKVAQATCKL
UniProt Q9BUJ2: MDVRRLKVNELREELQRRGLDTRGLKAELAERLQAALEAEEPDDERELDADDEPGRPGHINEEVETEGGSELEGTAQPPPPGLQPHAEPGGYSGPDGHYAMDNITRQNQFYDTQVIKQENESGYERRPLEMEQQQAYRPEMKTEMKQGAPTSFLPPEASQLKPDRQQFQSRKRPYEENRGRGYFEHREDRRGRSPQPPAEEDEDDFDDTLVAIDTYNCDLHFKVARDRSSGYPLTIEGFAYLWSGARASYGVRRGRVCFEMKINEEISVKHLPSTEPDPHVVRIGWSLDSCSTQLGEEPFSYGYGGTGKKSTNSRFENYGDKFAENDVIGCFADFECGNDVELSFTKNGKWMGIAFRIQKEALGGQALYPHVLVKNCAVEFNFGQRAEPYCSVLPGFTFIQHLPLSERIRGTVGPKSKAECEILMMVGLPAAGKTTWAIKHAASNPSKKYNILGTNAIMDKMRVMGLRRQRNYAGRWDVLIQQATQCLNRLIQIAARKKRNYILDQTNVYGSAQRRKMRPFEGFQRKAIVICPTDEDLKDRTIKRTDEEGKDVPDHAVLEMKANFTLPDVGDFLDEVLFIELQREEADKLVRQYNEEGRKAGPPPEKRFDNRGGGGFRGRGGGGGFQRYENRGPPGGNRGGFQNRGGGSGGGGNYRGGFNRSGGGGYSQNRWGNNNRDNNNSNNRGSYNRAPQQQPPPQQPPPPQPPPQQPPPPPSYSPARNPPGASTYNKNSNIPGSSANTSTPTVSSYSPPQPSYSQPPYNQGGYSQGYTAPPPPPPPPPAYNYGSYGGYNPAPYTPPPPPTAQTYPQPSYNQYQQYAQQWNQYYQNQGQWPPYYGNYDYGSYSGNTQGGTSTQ
UniProt Q1KMD3: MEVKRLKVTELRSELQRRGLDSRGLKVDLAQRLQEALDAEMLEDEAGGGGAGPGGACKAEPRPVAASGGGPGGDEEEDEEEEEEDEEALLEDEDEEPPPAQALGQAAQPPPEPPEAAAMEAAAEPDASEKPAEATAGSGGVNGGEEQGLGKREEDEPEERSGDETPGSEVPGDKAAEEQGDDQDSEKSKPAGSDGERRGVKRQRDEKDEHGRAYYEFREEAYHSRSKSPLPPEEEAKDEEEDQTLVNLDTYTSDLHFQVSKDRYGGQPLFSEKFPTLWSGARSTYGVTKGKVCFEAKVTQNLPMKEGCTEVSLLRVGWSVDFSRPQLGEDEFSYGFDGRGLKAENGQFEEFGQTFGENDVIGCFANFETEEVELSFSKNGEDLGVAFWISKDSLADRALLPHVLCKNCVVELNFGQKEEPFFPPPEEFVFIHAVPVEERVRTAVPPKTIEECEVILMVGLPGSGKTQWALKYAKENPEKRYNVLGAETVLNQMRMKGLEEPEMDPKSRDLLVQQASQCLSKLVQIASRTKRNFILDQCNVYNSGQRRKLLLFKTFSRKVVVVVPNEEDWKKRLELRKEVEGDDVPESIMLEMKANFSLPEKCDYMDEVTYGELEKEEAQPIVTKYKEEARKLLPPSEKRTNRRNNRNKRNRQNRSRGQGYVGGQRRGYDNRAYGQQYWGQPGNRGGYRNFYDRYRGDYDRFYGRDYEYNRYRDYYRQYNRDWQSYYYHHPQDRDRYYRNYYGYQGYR
UniProt P17483: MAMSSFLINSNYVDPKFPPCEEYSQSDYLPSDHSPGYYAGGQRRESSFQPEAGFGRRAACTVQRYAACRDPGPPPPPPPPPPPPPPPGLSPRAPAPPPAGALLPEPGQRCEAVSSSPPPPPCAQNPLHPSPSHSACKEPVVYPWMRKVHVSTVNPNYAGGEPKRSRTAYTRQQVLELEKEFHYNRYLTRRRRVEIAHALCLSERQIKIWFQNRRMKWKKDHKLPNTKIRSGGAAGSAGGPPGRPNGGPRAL
UniProt P31937: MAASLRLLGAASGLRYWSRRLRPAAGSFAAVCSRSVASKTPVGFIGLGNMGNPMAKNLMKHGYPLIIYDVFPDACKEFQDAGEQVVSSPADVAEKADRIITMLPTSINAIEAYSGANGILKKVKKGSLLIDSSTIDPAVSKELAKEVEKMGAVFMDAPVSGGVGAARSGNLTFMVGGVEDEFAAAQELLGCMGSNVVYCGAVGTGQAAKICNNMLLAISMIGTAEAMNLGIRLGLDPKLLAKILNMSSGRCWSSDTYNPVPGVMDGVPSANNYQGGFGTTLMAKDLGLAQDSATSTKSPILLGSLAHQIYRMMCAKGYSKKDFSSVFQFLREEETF
UniProt Q96FZ2: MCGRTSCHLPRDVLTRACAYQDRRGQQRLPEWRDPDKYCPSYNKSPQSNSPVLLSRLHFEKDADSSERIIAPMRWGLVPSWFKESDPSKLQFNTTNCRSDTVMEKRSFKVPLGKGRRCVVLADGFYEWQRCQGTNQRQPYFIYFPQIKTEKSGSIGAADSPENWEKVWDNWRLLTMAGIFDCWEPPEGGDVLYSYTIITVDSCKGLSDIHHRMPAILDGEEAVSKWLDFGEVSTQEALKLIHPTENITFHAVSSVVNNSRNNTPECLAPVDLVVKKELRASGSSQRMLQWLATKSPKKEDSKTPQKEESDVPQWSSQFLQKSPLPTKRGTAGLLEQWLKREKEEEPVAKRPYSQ

compound: Cc1sc2c(c1C)C(c1ccc(Cl)cc1)=N[C@@H](CC(=O)OC(C)(C)C)c1nnc(C)n1-2; experiment: log2 fold change, soluble protein after heating vs DMSO (PISA); higher = thermal stabilisation; K562 lysate, 10 uM; active = over 0.2 and 3.5 SD of the protein, either way, in both replicates (recomputed)
Method in brief: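 The values are log-two fold changes in thermal stability compared with solvent controls and come from duplicates. They were obtained by TMTpro 16plex LC-MS/MS, with channel sums equalised, on the supernatant after 21,000xg for 90 min. That supernatant came from crude K562 extract at 1 mg/mL protein treated with 10 μM compound for 30 min, heated for 3 min across 48°C-58°C, pooled and brought to 0.5% NP-40 at 4°C.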

| Target | log2 fold change |
| --- | --- |
| HM13 (UniProt Q8TCT9) | inactive: -0.044 |
| HINT1 (UniProt P49773) | inactive: 0.03 |
| HEMGN (UniProt Q9BXL5) | inactive: 0.036 |
| HSBP1 (UniProt O75506) | inactive: -0.035 |
| HMG20B (UniProt Q9P0W2) | inactive: -0.103 |
| HERC2 (UniProt O95714) | inactive: 0.018 |
| HPF1 (UniProt Q9NWY4) | inactive: 0.017 |
| HSPA1A (UniProt P0DMV8) | inactive: -0.005 |
| HNRNPA2B1 (UniProt P22626) | inactive: 0.013 |
| HPS5 (UniProt Q9UPZ3) | inactive: 0.047 |
| HEBP1 (UniProt Q9NRV9) | inactive: 0.023 |
| HNRNPDL (UniProt O14979) | inactive: 0.048 |
| HMGCL (UniProt P35914) | inactive: 0.046 |
| HNRNPUL1 (UniProt Q9BUJ2) | inactive: -0.003 |
| HNRNPUL2 (UniProt Q1KMD3) | inactive: 0.007 |
| HOXB4 (UniProt P17483) | inactive: 0.13 |
| HIBADH (UniProt P31937) | inactive: -0.033 |
| HMCES (UniProt Q96FZ2) | inactive: 0.049 |

3 entries from above, bar-delimited.
Target | log2 fold change
HINT1 (UniProt P49773) | inactive: 0.03
HERC2 (UniProt O95714) | inactive: 0.018
HMGCL (UniProt P35914) | inactive: 0.046
